Experimental data reported in paper PMC9879980.
No constants are given. Whether binding was seen depends on the method and setting.

Protein sequences, listed by entry. Tags and fused reporters are not part of them. Residues count along the entry.
UniProt P26660, residues 456-713: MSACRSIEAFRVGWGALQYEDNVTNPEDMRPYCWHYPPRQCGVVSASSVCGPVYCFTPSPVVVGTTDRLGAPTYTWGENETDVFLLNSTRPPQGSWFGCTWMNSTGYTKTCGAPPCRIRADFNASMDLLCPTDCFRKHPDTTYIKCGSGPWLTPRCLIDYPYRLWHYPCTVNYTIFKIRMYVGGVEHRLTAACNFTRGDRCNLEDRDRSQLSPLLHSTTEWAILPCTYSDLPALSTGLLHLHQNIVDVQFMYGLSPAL

Molecular target: HCV isolate J6 E2core+stem (residues 456-713) (Hepatitis C virus isolate J6 (genotype 2a)) (UniProt P26660)
Assay: SEC; E2core+stem, with or without 2A12 Fab, incubated with hCD81-LEL (1:1.3 molar ratio) overnight at 4 °C; Superdex200 in 20 mM sodium citrate pH 4.5, 100 mM NaCl (low pH); both purified

B1: human CD81 large extracellular loop (residues 112-202) (domain or fragment, UniProt P60033 112-202)
chain: GFVNKDQIAKDVKQFYDQALQQAVVDDDANNAKAVVKTFHETLDCCGSSTLTALTTSVLKNNLCPSGSNIISNLFKEDCHQKIDDLFSGKL
With B1 the binding was “no binding”.
